This note sets out measurements from PMC11965567.

No constants are given. Whether binding was seen depends on the method and setting. Binding seen in cells or lysates may run through a third protein. A yes stands for co-enrichment or nearness to the bait. Other partners may have been found. A no says only that the protein was not detected with the bait.

Test [1] has as its target T1, Thioredoxin-interacting protein (TXNIP), endogenous (human (endogenous in MDA-MB-231 and T47D)), Q9H3M7.
T1 chain: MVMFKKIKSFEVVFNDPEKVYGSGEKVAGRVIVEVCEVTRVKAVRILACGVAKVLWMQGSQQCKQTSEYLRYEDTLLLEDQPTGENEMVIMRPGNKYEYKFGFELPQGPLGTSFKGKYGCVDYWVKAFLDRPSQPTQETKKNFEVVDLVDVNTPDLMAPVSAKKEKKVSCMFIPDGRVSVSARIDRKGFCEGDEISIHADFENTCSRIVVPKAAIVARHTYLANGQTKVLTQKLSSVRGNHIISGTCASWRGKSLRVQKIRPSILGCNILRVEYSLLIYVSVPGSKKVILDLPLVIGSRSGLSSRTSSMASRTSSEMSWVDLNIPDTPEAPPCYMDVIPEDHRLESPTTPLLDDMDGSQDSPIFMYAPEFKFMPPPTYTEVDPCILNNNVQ
In words: affinity purification with mass spectrometry; co-IP followed by mass spectrometry in TXNIP-KD MDA-MB-231 cells and TXNIP-OE HCC-1954 cells; cell lysate in IP lysis buffer, antibody or control IgG, sepharose agarose beads, three washes with lysis buffer; three independent experiments. Particulars: remark: other sources report otherwise.

The target of test [2] is T2, Thioredoxin-interacting protein (TXNIP), overexpressed in HCC-1954 cells, Q9H3M7.
T2 chain: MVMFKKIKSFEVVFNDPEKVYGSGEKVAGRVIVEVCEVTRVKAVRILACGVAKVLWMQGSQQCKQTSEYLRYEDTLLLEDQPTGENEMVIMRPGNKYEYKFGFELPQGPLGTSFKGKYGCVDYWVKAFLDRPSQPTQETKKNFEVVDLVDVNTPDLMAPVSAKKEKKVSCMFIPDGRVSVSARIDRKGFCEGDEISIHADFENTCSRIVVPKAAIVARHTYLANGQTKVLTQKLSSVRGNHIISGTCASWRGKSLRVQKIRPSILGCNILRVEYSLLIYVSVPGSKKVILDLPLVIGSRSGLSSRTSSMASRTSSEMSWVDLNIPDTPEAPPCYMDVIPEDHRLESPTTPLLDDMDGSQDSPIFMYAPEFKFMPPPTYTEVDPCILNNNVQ
Described as above. The settings on record: remark: other sources report otherwise.

B1: NEDD4L, endogenous, Q96PU5 1-975 (protein)
chain: MATGLGEPVYGLSEDEGESRILRVKVVSGIDLAKKDIFGASDPYVKLSLYVADENRELALVQTKTIKKTLNPKWNEEFYFRVNPSNHRLLFEVFDENRLTRDDFLGQVDVPLSHLPTEDPTMERPYTFKDFLLRPRSHKSRVKGFLRLKMAYMPKNGGQDEENSDQRDDMEHGWEVVDSNDSASQHQEELPPPPLPPGWEEKVDNLGRTYYVNHNNRTTQWHRPSLMDVSSESDNNIRQINQEAAHRRFRSRRHISEDLEPEPSEGGDVPEPWETISEEVNIAGDSLGLALPPPPASPGSRTSPQELSEELSRRLQITPDSNGEQFSSLIQREPSSRLRSCSVTDAVAEQGHLPPPSAPAGRARSSTVTGGEEPTPSVAYVHTTPGLPSGWEERKDAKGRTYYVNHNNRTTTWTRPIMQLAEDGASGSATNSNNHLIEPQIRRPRSLSSPTVTLSAPLEGAKDSPVRRAVKDTLSNPQSPQPSPYNSPKPQHKVTQSFLPPGWEMRIAPNGRPFFIDHNTKTTTWEDPRLKFPVHMRSKTSLNPNDLGPLPPGWEERIHLDGRTFYIDHNSKITQWEDPRLQNPAITGPAVPYSREFKQKYDYFRKKLKKPADIPNRFEMKLHRNNIFEESYRRIMSVKRPDVLKARLWIEFESEKGLDYGGVAREWFFLLSKEMFNPYYGLFEYSATDNYTLQINPNSGLCNEDHLSYFTFIGRVAGLAVFHGKLLDGFFIRPFYKMMLGKQITLNDMESVDSEYYNSLKWILENDPTELDLMFCIDEENFGQTYQVDLKPNGSEIMVTNENKREYIDLVIQWRFVNRVQKQMNAFLEGFTELLPIDLIKIFDENELELLMCGLGDVDVNDWRQHSIYKNGYCPNHPVIQWFWKAVLLMDAEKRIRLLQFVTGTSRVPMNGFAELYGSNGPQLFTIEQWGSPEKLPRAHTCFNRLDLPPYETFEDLREKLLMAVENAQGFEGVD
Take B1: the binding entry in test [1] and in test [2] was “no binding” each time.

B2: SLC2A1 (GLUT-1), endogenous, P11166 1-492 (protein)
chain: MEPSSKKLTGRLMLAVGGAVLGSLQFGYNTGVINAPQKVIEEFYNQTWVHRYGESILPTTLTTLWSLSVAIFSVGGMIGSFSVGLFVNRFGRRNSMLMMNLLAFVSAVLMGFSKLGKSFEMLILGRFIIGVYCGLTTGFVPMYVGEVSPTALRGALGTLHQLGIVVGILIAQVFGLDSIMGNKDLWPLLLSIIFIPALLQCIVLPFCPESPRFLLINRNEENRAKSVLKKLRGTADVTHDLQEMKEESRQMMREKKVTILELFRSPAYRQPILIAVVLQLSQQLSGINAVFYYSTSIFEKAGVQQPVYATIGSGIVNTAFTVVSLFVVERAGRRTLHLIGLAGMAGCAILMTIALALLEQLPWMSYLSIVAIFGFVAFFEVGPGPIPWFIVAELFSQGPRPAAIAVAGFSNWTSNFIVGMCFQYVEQLCGPYVFIIFTVLLVLFFIFTYFKVPETKGRTFDEIASGFRQGGASQSDKTPEELFHPLGADSQV
With B2, the binding entry in test [1] and in test [2] was “no binding” in each case.
